No constants are given. Whether binding was seen depends on the method and setting. Binding seen in cells or lysates may run through a third protein. Some results given as binding are weak or reduced against the parent protein; the word gives no strength.
Key:
Assay in all cases: co-IP; whole-cell NP9 lysates immunoprecipitated with anti-ERK5, anti-GAC or anti-KGA/GAC antibodies; SDS-PAGE and Western blotting; lysis buffer 20 mM Tris-HCl pH 7.0, 140 mM NaCl, 50 mM EDTA, 10% glycerol, 1% Nonidet P-40
[1] = target: Extracellular-Signal-Regulated Kinase 5 (ERK5) (human (endogenous in NP9)) (UniProt Q13164)
[2] = target: glutaminase C (GAC), isoform of mitochondrial glutaminase GLS (human (endogenous in NP9)) (UniProt O94925)
[3] = target: kidney glutaminase (KGA), isoform of mitochondrial glutaminase GLS (human (endogenous in NP9)) (UniProt O94925)

Amino acid sequences for entries named in this document (tags omitted). A change or cut given only in a name is not applied to a line headed by its entry. Chains listed by the source or under a name are the forms on record and can include a tag or linker. Residues count along the entry.
UniProt Q13164: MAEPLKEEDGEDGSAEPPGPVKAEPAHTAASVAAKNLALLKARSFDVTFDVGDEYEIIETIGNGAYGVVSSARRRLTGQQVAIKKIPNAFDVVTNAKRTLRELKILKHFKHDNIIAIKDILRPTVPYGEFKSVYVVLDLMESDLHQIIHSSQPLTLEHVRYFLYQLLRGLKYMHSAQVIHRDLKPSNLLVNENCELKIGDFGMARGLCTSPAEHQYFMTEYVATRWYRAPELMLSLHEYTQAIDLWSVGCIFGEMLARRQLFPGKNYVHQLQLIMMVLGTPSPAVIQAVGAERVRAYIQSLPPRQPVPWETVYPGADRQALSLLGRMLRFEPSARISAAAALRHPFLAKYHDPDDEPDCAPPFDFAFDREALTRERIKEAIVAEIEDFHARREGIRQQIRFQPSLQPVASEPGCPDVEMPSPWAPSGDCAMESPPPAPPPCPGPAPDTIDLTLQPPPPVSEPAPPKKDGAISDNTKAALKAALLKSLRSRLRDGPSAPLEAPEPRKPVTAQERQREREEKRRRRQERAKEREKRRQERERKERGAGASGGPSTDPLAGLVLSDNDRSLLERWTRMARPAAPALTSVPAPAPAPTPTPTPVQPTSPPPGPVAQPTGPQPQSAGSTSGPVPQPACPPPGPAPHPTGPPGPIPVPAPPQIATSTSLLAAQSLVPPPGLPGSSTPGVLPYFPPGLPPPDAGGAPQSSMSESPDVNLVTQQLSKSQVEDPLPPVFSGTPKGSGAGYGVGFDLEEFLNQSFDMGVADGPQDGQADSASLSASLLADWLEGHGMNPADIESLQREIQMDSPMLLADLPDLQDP
kidney glutaminase (KGA), isoform of mitochondrial glutaminase GLS (human (endogenous in NP9)) (O94925, residues 55-669): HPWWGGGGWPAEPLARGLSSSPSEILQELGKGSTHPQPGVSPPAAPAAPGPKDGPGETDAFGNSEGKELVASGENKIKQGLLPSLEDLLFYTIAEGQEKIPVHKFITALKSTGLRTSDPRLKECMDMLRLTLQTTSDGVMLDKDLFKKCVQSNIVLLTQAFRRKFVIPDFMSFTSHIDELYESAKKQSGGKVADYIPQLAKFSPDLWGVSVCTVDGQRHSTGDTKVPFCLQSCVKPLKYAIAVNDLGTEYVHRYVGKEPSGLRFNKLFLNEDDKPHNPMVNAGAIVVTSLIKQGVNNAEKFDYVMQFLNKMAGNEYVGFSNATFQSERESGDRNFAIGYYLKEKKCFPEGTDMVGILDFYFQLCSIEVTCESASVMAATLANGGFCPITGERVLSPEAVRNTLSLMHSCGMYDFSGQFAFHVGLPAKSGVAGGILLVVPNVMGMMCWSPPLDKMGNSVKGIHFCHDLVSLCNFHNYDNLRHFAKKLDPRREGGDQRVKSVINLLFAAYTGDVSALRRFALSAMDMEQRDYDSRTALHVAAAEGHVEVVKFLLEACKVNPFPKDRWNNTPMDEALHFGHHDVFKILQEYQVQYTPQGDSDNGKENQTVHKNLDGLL
glutaminase C (GAC), isoform of mitochondrial glutaminase GLS (O94925-3, form named): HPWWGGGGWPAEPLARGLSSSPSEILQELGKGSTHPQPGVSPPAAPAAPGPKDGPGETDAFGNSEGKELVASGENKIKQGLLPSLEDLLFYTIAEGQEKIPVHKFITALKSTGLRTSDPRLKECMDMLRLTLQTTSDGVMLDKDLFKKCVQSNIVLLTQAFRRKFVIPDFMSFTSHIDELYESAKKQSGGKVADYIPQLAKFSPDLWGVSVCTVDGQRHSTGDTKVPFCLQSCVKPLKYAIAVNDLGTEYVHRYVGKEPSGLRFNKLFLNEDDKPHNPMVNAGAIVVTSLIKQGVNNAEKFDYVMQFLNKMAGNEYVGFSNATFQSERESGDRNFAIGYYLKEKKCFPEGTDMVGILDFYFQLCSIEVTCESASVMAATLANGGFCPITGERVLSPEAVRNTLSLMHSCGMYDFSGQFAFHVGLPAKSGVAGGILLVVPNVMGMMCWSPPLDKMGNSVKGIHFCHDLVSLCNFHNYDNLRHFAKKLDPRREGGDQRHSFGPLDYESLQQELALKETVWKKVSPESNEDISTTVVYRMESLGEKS

binding [1]	binding [2]	binding [3]	Substance
binds			kidney glutaminase (KGA), isoform of mitochondrial glutaminase GLS (from UniProt O94925 55-669) (enzyme)
	binds	binds	Extracellular-Signal-Regulated Kinase 5 (ERK5) (from UniProt Q13164 1-816) (enzyme)
binds			glutaminase C (GAC), isoform of mitochondrial glutaminase GLS (from UniProt O94925-3 55-598) (enzyme)
